Experimental data published in the supplement of paper PMC12819154, “High-throughput peptide-centric local stability assay extends protein–ligand identification to membrane proteins, tissues and bacteria” (Nature Structural & Molecular Biology, 2025).
Some of the results follow. Small differences around the control level are noise.

By UniProt entry, the sequences of proteins in these tests, tags left out. Where a name states a change or a piece, a line headed by the entry shows the natural chain unless it says otherwise.
UniProt Q96BI3, whole entry: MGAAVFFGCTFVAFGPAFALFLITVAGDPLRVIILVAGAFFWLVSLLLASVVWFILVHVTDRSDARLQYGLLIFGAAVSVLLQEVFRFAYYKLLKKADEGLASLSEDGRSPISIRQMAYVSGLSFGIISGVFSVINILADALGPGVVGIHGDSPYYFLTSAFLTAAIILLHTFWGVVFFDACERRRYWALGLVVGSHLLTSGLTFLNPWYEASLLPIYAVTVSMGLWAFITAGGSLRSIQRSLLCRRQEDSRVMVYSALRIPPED
UniProt Q96CM3: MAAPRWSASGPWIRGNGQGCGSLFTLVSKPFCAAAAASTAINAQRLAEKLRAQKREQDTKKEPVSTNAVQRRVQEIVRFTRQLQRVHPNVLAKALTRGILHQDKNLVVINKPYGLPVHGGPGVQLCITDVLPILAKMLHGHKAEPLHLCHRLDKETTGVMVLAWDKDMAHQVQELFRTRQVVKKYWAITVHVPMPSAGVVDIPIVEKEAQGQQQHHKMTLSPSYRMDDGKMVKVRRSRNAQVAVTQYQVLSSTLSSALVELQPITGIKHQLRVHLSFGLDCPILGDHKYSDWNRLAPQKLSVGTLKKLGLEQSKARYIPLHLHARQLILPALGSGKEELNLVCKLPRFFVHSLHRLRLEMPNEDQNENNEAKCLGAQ
UniProt Q96B70: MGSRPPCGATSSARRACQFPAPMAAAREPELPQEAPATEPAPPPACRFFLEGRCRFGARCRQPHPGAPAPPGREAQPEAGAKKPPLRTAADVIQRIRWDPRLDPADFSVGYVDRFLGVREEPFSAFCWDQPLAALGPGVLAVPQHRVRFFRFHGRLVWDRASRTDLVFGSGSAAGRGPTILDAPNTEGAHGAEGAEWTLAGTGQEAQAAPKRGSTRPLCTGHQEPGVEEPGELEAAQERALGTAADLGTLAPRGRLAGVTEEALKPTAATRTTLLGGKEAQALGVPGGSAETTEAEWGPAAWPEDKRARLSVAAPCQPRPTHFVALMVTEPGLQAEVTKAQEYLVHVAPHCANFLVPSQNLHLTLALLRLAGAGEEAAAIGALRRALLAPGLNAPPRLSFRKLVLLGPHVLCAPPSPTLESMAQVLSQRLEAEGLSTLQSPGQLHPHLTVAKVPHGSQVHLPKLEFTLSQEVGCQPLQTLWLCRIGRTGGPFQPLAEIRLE
UniProt Q96EK5: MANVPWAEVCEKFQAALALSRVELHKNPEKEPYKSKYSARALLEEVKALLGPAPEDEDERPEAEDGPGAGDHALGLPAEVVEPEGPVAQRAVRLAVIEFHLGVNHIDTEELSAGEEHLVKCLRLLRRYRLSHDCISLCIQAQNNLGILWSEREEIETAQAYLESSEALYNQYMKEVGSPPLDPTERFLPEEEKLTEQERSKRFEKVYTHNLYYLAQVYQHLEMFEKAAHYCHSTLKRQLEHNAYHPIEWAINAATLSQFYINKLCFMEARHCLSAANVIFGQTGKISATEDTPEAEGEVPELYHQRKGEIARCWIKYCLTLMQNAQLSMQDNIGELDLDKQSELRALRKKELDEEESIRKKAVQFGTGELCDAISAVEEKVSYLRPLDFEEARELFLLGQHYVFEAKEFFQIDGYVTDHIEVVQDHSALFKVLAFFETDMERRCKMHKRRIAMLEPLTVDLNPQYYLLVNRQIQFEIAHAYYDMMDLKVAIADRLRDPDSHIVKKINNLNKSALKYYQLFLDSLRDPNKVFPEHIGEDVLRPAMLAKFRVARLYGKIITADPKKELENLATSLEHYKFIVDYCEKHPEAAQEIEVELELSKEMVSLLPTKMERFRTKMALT
UniProt Q92901: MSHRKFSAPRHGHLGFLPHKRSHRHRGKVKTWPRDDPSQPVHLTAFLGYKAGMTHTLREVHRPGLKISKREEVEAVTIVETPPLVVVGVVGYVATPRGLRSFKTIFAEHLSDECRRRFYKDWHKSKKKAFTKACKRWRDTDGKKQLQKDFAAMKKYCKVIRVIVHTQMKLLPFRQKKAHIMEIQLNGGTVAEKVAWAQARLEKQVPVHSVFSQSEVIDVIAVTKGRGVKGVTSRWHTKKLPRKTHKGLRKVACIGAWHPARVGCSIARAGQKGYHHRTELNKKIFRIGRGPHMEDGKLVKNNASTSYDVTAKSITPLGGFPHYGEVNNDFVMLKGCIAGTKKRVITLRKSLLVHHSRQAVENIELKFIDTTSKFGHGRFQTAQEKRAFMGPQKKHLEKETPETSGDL
UniProt Q92963, whole entry: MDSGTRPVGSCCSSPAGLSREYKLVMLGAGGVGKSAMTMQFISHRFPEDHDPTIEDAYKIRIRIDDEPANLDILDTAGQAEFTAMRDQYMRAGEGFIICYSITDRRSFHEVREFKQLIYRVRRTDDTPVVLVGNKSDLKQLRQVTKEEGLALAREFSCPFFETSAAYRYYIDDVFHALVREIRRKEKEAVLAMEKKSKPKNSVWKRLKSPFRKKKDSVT
UniProt Q96E29: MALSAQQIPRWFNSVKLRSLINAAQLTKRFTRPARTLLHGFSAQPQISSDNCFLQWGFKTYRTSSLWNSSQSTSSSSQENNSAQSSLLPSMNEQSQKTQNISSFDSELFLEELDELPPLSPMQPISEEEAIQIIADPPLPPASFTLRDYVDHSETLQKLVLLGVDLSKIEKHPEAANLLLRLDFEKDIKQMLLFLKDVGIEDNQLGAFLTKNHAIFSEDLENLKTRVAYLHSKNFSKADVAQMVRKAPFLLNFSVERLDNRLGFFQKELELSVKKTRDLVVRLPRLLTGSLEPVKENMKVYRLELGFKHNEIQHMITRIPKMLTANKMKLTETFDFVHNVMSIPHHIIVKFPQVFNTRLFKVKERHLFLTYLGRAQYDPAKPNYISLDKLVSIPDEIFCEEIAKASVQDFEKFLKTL
UniProt Q92871: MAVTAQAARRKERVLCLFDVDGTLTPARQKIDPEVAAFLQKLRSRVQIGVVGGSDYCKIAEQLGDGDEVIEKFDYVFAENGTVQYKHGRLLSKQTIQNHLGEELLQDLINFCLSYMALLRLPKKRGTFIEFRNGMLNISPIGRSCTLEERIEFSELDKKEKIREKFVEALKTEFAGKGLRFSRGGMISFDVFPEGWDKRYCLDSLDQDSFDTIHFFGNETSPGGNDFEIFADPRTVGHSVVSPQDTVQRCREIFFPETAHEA
UniProt Q96AT1: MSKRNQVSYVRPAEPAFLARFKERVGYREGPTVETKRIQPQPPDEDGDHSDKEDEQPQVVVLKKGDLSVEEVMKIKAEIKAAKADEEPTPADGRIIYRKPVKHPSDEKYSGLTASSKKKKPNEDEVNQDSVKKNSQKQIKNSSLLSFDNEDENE
UniProt Q96FW1, whole entry: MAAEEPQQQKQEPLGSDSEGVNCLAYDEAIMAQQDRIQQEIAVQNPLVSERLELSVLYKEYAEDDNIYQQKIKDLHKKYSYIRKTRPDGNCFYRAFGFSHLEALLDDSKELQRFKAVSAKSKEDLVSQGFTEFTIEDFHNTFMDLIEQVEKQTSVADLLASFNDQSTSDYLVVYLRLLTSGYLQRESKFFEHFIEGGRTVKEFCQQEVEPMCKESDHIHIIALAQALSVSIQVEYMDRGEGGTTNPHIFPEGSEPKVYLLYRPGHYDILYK
UniProt Q969R8: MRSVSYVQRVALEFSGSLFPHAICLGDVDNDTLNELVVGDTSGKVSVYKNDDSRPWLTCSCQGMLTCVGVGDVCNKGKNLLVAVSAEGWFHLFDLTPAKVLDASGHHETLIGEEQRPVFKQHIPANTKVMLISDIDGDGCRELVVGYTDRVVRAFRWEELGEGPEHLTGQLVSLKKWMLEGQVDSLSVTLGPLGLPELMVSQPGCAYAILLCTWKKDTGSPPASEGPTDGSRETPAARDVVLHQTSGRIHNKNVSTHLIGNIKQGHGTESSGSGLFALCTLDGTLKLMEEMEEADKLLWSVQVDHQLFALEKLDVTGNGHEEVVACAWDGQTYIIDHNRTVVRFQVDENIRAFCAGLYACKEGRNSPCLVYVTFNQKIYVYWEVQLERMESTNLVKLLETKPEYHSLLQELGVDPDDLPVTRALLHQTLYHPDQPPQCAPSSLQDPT

Each target was assayed with CN[C@@H]1C[C@H]2O[C@@](C)([C@@H]1OC)n1c3ccccc3c3c4c(c5c6ccccc6n2c5c31)C(=O)NC4 [staurosporine] (assay: log2 fold change of tryptic peptide abundance, ligand vs vehicle (limited proteolysis) (log2 ratio); higher = more trypsin-susceptible (destabilized)). Details: ligand concentration: 20 uM; sample: K562 cleared lysate; digestion: 4 min, 22 C (HT-PELSA RT4min, Orbitrap Astral).

Target	log2 fold change
APH1A (peptide sequence: VMVYSALR, peptide start residue: 253) (UniProt Q96BI3)	-0.155
RPUSD4 (peptide sequence: MTLSPSYR, peptide start residue: 218) (UniProt Q96CM3)	-0.203
LENG9 (peptide sequence: TDLVFGSGSAAGR, peptide start residue: 164) (UniProt Q96B70)	-0.192
UniProt Q96EK5 (peptide sequence: VFPEHIGEDVLRPAMLAK, peptide start residue: 530)	0.404
RPL3L (peptide sequence: VACIGAWHPAR, peptide start residue: 251) (UniProt Q92901)	-0.209
RIT1 (peptide sequence: QVTKEEGLALAR, peptide start residue: 143) (UniProt Q92963)	0.103
UniProt Q96E29 (peptide sequence: DYVDHSETLQK, peptide start residue: 148)	-0.368
PMM1 (peptide sequence: NGMLNISPIGR, peptide start residue: 133) (UniProt Q92871)	0.23
KIAA1143 (peptide sequence: PVKHPSDEK, peptide start residue: 100) (UniProt Q96AT1)	-0.569
OTUB1 (peptide sequence: AFGFSHLEALLDDSKELQR, peptide start residue: 95) (UniProt Q96FW1)	0.0782
ITFG2 (peptide sequence: FQVDENIR, peptide start residue: 344) (UniProt Q969R8)	-0.293

Two entries from above, in CSV form:
Target,log2 fold change
"KIAA1143 (peptide sequence: PVKHPSDEK, peptide start residue: 100) (UniProt Q96AT1)",-0.569
"OTUB1 (peptide sequence: AFGFSHLEALLDDSKELQR, peptide start residue: 95) (UniProt Q96FW1)",0.0782
